Experimental data reported in PMC5962530.
No constants are given. Whether binding was seen depends on the method and setting. In cells and extracts the contact can be indirect. Some binding calls cover weakened binding; strength is not graded here.

Experiments:
[1] = molecular target: T1, biotin-URP (biotinylated unrelated peptide); assay: pull-down; called co-immunoprecipitation by the paper: biotin-GX1 or biotin-URP on Dynabeads M-280 Streptavidin, co-HUVEC lysate, eluates on SDS-PAGE, blot with TGM2 antibody; only the target purified
T1 sequence (peptide, biotinylated (position not stated); cyclo-peptide): CNKSPSGNC

[2] = molecular target: T2, biotin-GX1 (biotinylated peptide GX1); assay: as above
T2 sequence (peptide, biotinylated (position not stated); cyclic peptide): CGNSNPKSC

B1: transglutaminase-2 (TGM2) (protein, UniProt P21980 1-687)
chain: MAEELVLERCDLELETNGRDHHTADLCREKLVVRRGQPFWLTLHFEGRNYEASVDSLTFSVVTGPAPSQEAGTKARFPLRDAVEEGDWTATVVDQQDCTLSLQLTTPANAPIGLYRLSLEASTGYQGSSFVLGHFILLFNAWCPADAVYLDSEEERQEYVLTQQGFIYQGSAKFIKNIPWNFGQFEDGILDICLILLDVNPKFLKNAGRDCSRRSSPVYVGRVVSGMVNCNDDQGVLLGRWDNNYGDGVSPMSWIGSVDILRRWKNHGCQRVKYGQCWVFAAVACTVLRCLGIPTRVVTNYNSAHDQNSNLLIEYFRNEFGEIQGDKSEMIWNFHCWVESWMTRPDLQPGYEGWQALDPTPQEKSEGTYCCGPVPVRAIKEGDLSTKYDAPFVFAEVNADVVDWIQQDDGSVHKSINRSLIVGLKISTKSVGRDEREDITHTYKYPEGSSEEREAFTRANHLNKLAEKEETGMAMRIRVGQSMNMGSDFDVFAHITNNTAEEYVCRLLLCARTVSYNGILGPECGTKYLLNLNLEPFSEKSVPLCILYEKYRDCLTESNLIKVRALLVEPVINSYLLAERDLYLENPEIKIRILGEPKQKRKLVAEVSLQNPLPVALEGCTFTVEGAGLTEEQKTVEIPDPVEAGEEVKVRMDLLPLHMGLHKLVVNFESDKLKAVKGFRNVIIGPA
[1]
  binding: no binding
[2]
  binding: binds
